For the assay, the target named is full length mouse DLL4 on overexpressing CHO or HEK293 cells (mouse) (UniProt Q9JI71). Put plainly: FMAT competition: unlabelled rhNotch1-Fc against labelled hNotch1/Fc on mDLL4 cells.

By UniProt entry, the sequences of proteins in these tests, tags left out. Where a name states a change or a piece, a line headed by the entry shows the natural chain unless it says otherwise. Residues count along the entry.
UniProt Q9JI71, residues 27-686: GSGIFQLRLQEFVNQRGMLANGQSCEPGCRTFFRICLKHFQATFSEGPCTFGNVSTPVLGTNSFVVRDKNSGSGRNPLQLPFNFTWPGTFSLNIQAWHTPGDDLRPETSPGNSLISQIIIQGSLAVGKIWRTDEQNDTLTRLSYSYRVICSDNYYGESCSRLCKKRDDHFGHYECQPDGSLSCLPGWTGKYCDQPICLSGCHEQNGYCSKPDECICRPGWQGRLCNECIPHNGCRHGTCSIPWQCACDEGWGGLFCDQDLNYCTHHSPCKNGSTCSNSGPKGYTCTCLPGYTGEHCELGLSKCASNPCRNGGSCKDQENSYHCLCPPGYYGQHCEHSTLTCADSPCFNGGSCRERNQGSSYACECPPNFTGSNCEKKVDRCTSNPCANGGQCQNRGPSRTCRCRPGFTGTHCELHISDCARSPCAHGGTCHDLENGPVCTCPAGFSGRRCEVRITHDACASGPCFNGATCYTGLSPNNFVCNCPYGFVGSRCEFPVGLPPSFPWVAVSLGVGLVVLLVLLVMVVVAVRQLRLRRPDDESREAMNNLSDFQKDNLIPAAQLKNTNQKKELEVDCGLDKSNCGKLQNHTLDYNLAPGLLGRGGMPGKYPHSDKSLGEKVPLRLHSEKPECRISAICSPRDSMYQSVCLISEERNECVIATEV
UniProt P46531, residues 19-526: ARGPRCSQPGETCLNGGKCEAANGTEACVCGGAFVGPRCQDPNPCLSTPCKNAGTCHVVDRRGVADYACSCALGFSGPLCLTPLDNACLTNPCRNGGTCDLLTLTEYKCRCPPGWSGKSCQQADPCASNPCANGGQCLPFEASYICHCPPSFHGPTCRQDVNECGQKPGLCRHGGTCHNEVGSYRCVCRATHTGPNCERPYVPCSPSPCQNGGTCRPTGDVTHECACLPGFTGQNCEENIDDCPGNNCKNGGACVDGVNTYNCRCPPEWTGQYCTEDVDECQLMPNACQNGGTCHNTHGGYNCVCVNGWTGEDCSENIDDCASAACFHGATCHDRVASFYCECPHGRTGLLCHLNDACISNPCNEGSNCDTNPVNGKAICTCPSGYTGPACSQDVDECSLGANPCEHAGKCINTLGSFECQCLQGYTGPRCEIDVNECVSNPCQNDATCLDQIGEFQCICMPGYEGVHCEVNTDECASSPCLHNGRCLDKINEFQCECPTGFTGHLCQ

No constants are given. Whether binding was seen depends on the method and setting. Some entries that bind do so weakly or less than the wild type.

On to “recombinant human Notch1/Fc chimera (R&D Systems) (from UniProt P46531 19-526) (Fc fusion)”, for which the binding entry is “binds”.

The values are drawn from patent US20110195494A1 (Boehringer Ingelheim, published 2011).
